Reference: PubChem BioAssay AID686937 (Drosophila RNAi Screening Center, 2013)
In all, the deposit lists about 23,000 reagents; shown is a random part of those with a known target gene and a result. 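Reduced-secretion tags in replicate 1 do not always agree with the z-scores; no criterion for assigning the tags was given.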 Names joined by + are all predicted targets of the reagent. Further read-outs or replicates are left out here. The record does not give: the amount of reagent.

Aim: 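Knock-downs that reduce output of a secreted reporter enzyme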 (primary screen)
Cells: Drosophila S2 cells expressing secreted horseradish peroxidase
Reagent: long dsRNA against Drosophila genes
Time to read-out: about 5.5 days (5 days dsRNA, then 12 h reporter induction)
Challenge: reporter expression induced after 5 days of dsRNA, read 12 h later; inducer not stated
Measurement: 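Chemiluminescent measurement of peroxidase in the medium 12 h after reporter induction, following 5 days of dsRNA, given as a z-score per plate; higher means more secretion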
Reading the numbers: z-score: higher = more reporter secreted into medium

CG9932 [DRSC03275]
- z-score, replicate 1: 0.56

SCAR [DRSC03426]
- z-score, replicate 1: -0.48

RpLP1 [DRSC00783]
- z-score, replicate 1: -2.06
- phenotype, replicate 1: reduced secretion

RpLP1 [DRSC22145]
- z-score, replicate 1: -1.82
- phenotype, replicate 1: reduced secretion

Lipt1 [DRSC05600]
- z-score, replicate 1: -0.09

CG5033 [DRSC07410]
- z-score, replicate 1: 0.26

CG12609 [DRSC19473]
- z-score, replicate 1: -0.08

CR31824 [DRSC01517]
- z-score, replicate 1: 0.31

Or33b [DRSC03387]
- z-score, replicate 1: 0.62

Lsp1alpha [DRSC20258]
- z-score, replicate 1: 0.07

Rab11 [DRSC16809]
- z-score, replicate 1: -5.08
- phenotype, replicate 1: reduced secretion

CG8671 [DRSC03102]
- z-score, replicate 1: -0.02

CG8671 [DRSC03103]
- z-score, replicate 1: 0.25

Cyp4ad1 [DRSC07369]
- z-score, replicate 1: 0.32

CR44003 + CG44002 [DRSC00523]
- z-score, replicate 1: 0.26

CR44003 + CG44002 [DRSC00606]
- z-score, replicate 1: 0.63

grass [DRSC15911]
- z-score, replicate 1: 0.28

CG15550 [DRSC15088]
- z-score, replicate 1: 0.04

Nha2 [DRSC14689]
- z-score, replicate 1: 0.24

Nha2 [DRSC15619]
- z-score, replicate 1: -2.12
- phenotype, replicate 1: reduced secretion

Nha2 [DRSC15623]
- z-score, replicate 1: 0.21

Alg3 [DRSC04700]
- z-score, replicate 1: -0.06

Egfr [DRSC03871]
- z-score, replicate 1: 0.09

Egfr [DRSC04613]
- z-score, replicate 1: -0.03

CG14563 [DRSC11724]
- z-score, replicate 1: 0.19

CG33301 [DRSC02778]
- z-score, replicate 1: -0.19

CG3788 [DRSC04418]
- z-score, replicate 1: 0.04

CG11251 [DRSC09825]
- z-score, replicate 1: 0.59

CG11362 [DRSC04106]
- z-score, replicate 1: 0.19

CG11362 [DRSC22032]
- z-score, replicate 1: 0.33

CG9396 [DRSC16487]
- z-score, replicate 1: 0.27

CG18528 [DRSC15340]
- z-score, replicate 1: 0.38

Teh4 [DRSC08457]
- z-score, replicate 1: 0.54

ND-B17.2 [DRSC00577]
- z-score, replicate 1: 0.14

Vrp1 [DRSC04148]
- z-score, replicate 1: 0.46

CG6465 [DRSC16046]
- z-score, replicate 1: 0.2

Amacr [DRSC03198]
- z-score, replicate 1: 0.35

par-6 [DRSC20359]
- z-score, replicate 1: 0.28

CG33552 [DRSC01551]
- z-score, replicate 1: 0.22

CG6441 [DRSC02957]
- z-score, replicate 1: 0.36

In a second layout: entries from further up.
target gene,DRSC id,"z-score, replicate 1","phenotype, replicate 1"
CG6465,DRSC16046,0.2,
Amacr,DRSC03198,0.35,
par-6,DRSC20359,0.28,
CG33552,DRSC01551,0.22,
CG6441,DRSC02957,0.36,
